Test [1] addresses FGFR2 (human (endogenous in GIST T-1R)) (UniProt P21802). The experiment in a line: co-IP; endogenous proteins in GIST T-1R whole cell lysates (TEB buffer: 50 mM Tris-HCl pH 7.5, 150 mM NaCl, 1% NP-40, 10% glycerol); precipitated with anti-CLDN1 mAb (sc-166338) or anti-FGFR2 Ab (ab281925) overnight at 4 °C, protein A and G Sepharose beads, blot for the partner; both directions.
The target in test [2] is claudin-1 (human (endogenous in GIST T-1R)) (UniProt O95832). Described as above.

Protein sequences, listed by entry. Tags and fused reporters are not part of them. Residues count along the entry.
UniProt P21802, residues 22-821: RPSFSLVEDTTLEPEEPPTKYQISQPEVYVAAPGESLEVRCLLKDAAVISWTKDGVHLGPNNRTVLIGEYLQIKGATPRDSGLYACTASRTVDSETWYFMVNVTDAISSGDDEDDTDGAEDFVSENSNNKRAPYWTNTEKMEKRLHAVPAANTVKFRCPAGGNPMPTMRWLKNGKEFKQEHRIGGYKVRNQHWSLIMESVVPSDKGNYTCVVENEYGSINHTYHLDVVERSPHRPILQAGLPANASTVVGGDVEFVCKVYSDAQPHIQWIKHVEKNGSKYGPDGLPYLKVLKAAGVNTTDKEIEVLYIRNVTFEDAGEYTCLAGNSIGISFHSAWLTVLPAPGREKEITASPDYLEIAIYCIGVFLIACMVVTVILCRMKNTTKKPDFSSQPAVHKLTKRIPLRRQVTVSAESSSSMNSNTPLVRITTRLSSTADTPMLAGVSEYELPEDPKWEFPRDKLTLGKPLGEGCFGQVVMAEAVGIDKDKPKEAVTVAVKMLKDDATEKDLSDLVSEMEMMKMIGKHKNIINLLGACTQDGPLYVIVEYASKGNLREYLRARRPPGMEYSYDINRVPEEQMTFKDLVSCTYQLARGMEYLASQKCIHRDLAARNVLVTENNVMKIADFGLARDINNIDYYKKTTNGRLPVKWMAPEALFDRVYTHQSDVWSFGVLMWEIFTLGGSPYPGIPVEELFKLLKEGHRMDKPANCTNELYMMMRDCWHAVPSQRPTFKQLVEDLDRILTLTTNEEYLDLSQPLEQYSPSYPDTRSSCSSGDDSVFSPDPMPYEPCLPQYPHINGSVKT
UniProt O95832: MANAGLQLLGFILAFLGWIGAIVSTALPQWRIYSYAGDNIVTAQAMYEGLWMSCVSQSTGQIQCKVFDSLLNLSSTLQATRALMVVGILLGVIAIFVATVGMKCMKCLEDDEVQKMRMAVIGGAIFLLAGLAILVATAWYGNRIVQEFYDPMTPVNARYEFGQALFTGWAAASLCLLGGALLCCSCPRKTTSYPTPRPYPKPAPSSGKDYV

No constants are given. Whether binding was seen depends on the method and setting. In cells and extracts the contact can be indirect. Some entries that bind do so weakly or less than the wild type.

In the case of claudin-1 (from UniProt O95832 1-211), the binding entry in test [1] is listed as “binds”. Turning to “FGFR2 (from UniProt P21802 22-821) (receptor)”, the binding entry in test [2] is “binds”.

Source of the values: article PMC12428531.
